Data as given in PubChem BioAssay AID248 (DTP/NCI, 2004).
The list shows only some results of the screen, not a fair sample: it is rich in T/C values a quarter to a half above the control, in often repeated tests (any T/C) and in doses without a T/C. Further doses and runs are listed elsewhere. T/C is the treated group as % of the vehicle group. Some entries give survivors of the animals treated and no T/C: the source holds a T/C of zero for them, seemingly a mark for toxic or unscored doses. Some survivor counts are full or nearly so, which does not show that the dose was tolerated: survival well below the control is almost never listed, so the zero probably covers shortened survival too. Counts of survivors are from the toxicity check (mostly the fifth day) where no day follows; animals may have died later. Schedules are NCI's codes, taken here to give the interval after Q, in days (D) or hours (H), and the number of doses after X. Some entries were tested several times; the results are listed from low to high. Some schedule codes hold Z or #, which are not explained here. For survival time, the PubChem record calls one and a half times the control and up active, and a quarter to a half above the control has no call in these data; cut-offs in other NCI protocols can differ. Signs of the kind (2×) say how often a value occurs here.

System: L1210 leukemia ip in BDF1 mice, survival T/C
Assay: NCI In Vivo Anticancer Drug Screen. Data for tumor model L1210 Leukemia (intraperitoneal) in B6D2F1 (BDF1) mice
Details: T/C endpoint: mean survival time, higher T/C = longer survival
[1] = dose: 400.0 mg/kg/injection, schedule: Q01DX001 (ip), vehicle: saline
[2] = dose: 200.0 mg/kg/injection, schedule: Q04DX003 (ip), vehicle: saline with Tween-80
[3] = dose: 200.0 mg/kg/injection, schedule: Q01DX009 (ip), vehicle: saline with Tween-80
[4] = dose: 400.0 mg/kg/injection, schedule: Q01DX001 (ip), vehicle: saline with Tween-80
[5] = dose: 25.0 mg/kg/injection, schedule: Q01DX009 (ip), vehicle: saline
[6] = dose: 400.0 mg/kg/injection, schedule: Q04DX003 (ip), vehicle: saline
[7] = dose: 400.0 mg/kg/injection, schedule: Q04DX003 (ip), vehicle: Klucel (hydroxypropylcellulose) (HPC)
[8] = dose: 100.0 mg/kg/injection, schedule: Q04DX003 (ip), vehicle: Klucel (hydroxypropylcellulose) (HPC)
[9] = dose: 200.0 mg/kg/injection, schedule: Q04DX003 (ip), vehicle: Klucel (hydroxypropylcellulose) (HPC)
[10] = dose: 400.0 mg/kg/injection, schedule: Q04DX002 (ip), vehicle: saline
[11] = dose: 300.0 mg/kg/injection, schedule: Q01DX001 (ip), vehicle: carboxymethylcellulose (CMC)
[12] = dose: 100.0 mg/kg/injection, schedule: Q01DX009 (ip), vehicle: saline with Tween-80
[13] = dose: 200.0 mg/kg/injection, schedule: Q01DX009 (ip), vehicle: saline

For `CCCCCCC[As](=O)(O)CCCCCCC`, the survivor count [1] was 1 of 4.
In the case of `Cc1ccc(N=Cc2cc(Cl)ccc2O)cc1.Cc1ccc(N=Cc2cc(Cl)ccc2O)cc1.[Co]`, the survivor count (dose: 50.0 mg/kg/injection, schedule: Q04DX003 (ip), vehicle: saline with Tween-80) is reported as 3 of 3, the survivor count [2] is reported as 1 of 3 and the survivor count (dose: 400.0 mg/kg/injection, schedule: Q04DX003 (ip), vehicle: saline with Tween-80) is reported as 0 of 3.
In the case of `O=Cc1[nH]c(=O)[nH]c(=O)c1Br`, the survivor count [3] is reported as 6 of 6 and the survivor count [4] is reported as 2 of 6.
With `CN(C)c1ncnc2c1c(Br)cn2C1OC(CO)C(O)C1O` (stereo unspecified) the survivor count (dose: 80.0 mg/kg/injection, schedule: Q01DX001 (ip), vehicle: saline) was 0 of 4.
`Nc1ccn(C2OC(CO)C(O)C2OP(=O)(O)OCC2OC(n3ccc(=O)[nH]c3=O)CC2O)c(=O)n1` (stereo unspecified) was tested, and the T/C [5] was 137 % of control.
`O=CN(O)CC(=O)O.[Ni]` was tested, and the survivor count [5] was 3 of 6.
With `C[N+](C)(Cc1ccccc1)C1c2ccccc2-c2ccc(Cl)cc21` (stereo unspecified) the survivor count (dose: 50.0 mg/kg/injection, schedule: Q04DX002 (ip), vehicle: saline with Tween-80) was 0 of 3.
With `COc1ccc(OC)c2c1CCCC21OCCO1` the survivor count [4] was 6 of 6.
`CC1C(=O)CC(=O)C1=O` (stereo unspecified) was tested, and the survivor count [6] was 2 of 6.
For `O=NN(CCCl)C(=O)Nc1c[nH]c2ccccc12`, the T/C (dose: 177.0 mg/kg/injection, schedule: Q01DX001 (ip), vehicle: carboxymethylcellulose (CMC)) was 133 % of control, the T/C (dose: 266.0 mg/kg/injection, schedule: Q01DX001 (ip), vehicle: carboxymethylcellulose (CMC)) was 128 % of control and the T/C (dose: 400.0 mg/kg/injection, schedule: Q01DX001 (ip), vehicle: carboxymethylcellulose (CMC)) was 125 % of control. The T/C (dose: 400.0 mg/kg/injection, schedule: Q01DX009 (ip), vehicle: carboxymethylcellulose (CMC)) was 134 % of control and the T/C (dose: 600.0 mg/kg/injection, schedule: Q01DX001 (ip), vehicle: carboxymethylcellulose (CMC)) was 142 % of control.
In the case of `O=[N+]([O-])c1ccc(SNc2ccc(NSc3ccc([N+](=O)[O-])cc3)cc2)cc1`, the survivor count (dose: 100.0 mg/kg/injection, schedule: Q01DX001 (ip), vehicle: saline with Tween-80) is reported as 2 of 6.
`NC(=O)n1cccn1` was tested, and the survivor count (dose: 800.0 mg/kg/injection, schedule: Q01DX Z (ip), vehicle: carboxymethylcellulose (CMC)) was 2 of 6.
For `CC1CCCC(C)N1` (stereo unspecified), the survivor count [6] was 6 of 6.
For `CCC1(O)CC2c3ccccc3CCN2CC1CC(C)C` (stereo unspecified), the survivor count (dose: 200.0 mg/kg/injection, schedule: Q01DX009 (ip), vehicle: Klucel (hydroxypropylcellulose) (HPC)) was 0 of 6 and the survivor count [7] was 0 of 4.
In the case of `CCOP(=O)(OC(C)CC)OC(C)CC` (stereo unspecified), the survivor count (dose: 400.0 mg/kg/injection, schedule: Q04DX003 (ip), vehicle: carboxymethylcellulose (CMC)) is reported as 4 of 6.
`CCCCCCCCSCCO` was tested, and the survivor count (dose: 100.0 mg/kg/injection, schedule: Q04DX003 (ip), vehicle: saline with Tween-80) was 6 of 6 and the survivor count [2] was 6 of 6.
With `Nc1nc2c(c(=O)[nH]1)N=C(CNc1ccc(C(=O)NC(CCC(=O)O)C(=O)O)cc1)CN2` (stereo unspecified) the T/C (dose: 1.0 mg/kg/injection, schedule: Q01DX009 (ip), vehicle: sodium bicarbonate) was 130 % of control.
With `O=S(=O)(O)C(Nc1ccccn1)c1ccccc1` (stereo unspecified) the survivor count (dose: 200.0 mg/kg/injection, schedule: Q01DX001 (ip), vehicle: saline with Tween-80) was 0 of 3 and the survivor count [4] was 0 of 3.
`C[N+]12CCCc3cc(CO)cc(c31)CCC2` was tested, and the survivor count (dose: 50.0 mg/kg/injection, schedule: Q01DX009 (ip), vehicle: Klucel (hydroxypropylcellulose) (HPC)) was 5 of 6, the survivor count [8] was 0 of 6 and the survivor count [9] was 0 of 6. The survivor count [7] was 0 of 6.
In the case of `CSc1ccccc1C1CCCCCC1OS(C)(=O)=O` (stereo unspecified), the survivor count (dose: 200.0 mg/kg/injection, schedule: Q01DX001 (ip), vehicle: Klucel (hydroxypropylcellulose) (HPC)) is reported as 2 of 6 and the survivor count (dose: 400.0 mg/kg/injection, schedule: Q01DX001 (ip), vehicle: Klucel (hydroxypropylcellulose) (HPC)) is reported as 0 of 6.
`Brc1ccccn1` was tested, and the survivor count (dose: 150.0 mg/kg/injection, schedule: Q01DX001 (ip), vehicle: saline) was 3 of 6 and the survivor count (dose: 300.0 mg/kg/injection, schedule: Q01DX001 (ip), vehicle: saline) was 0 of 6.
In the case of `CCc1ccc(CCSCCc2ccc(CC)c[n+]2[O-])[n+]([O-])c1`, the survivor count [1] is reported as 1 of 6.
With `C/C=C/C=C/COC(=O)CCCCCC` the T/C [10] was 133 % of control.
With `CSC(=NC#N)SC` the survivor count (dose: 12.5 mg/kg/injection, schedule: Q04DX003 (ip), vehicle: Klucel (hydroxypropylcellulose) (HPC)) was 3 of 6, the survivor count (dose: 25.0 mg/kg/injection, schedule: Q04DX003 (ip), vehicle: Klucel (hydroxypropylcellulose) (HPC)) was 1 of 6 and the survivor count (dose: 50.0 mg/kg/injection, schedule: Q04DX003 (ip), vehicle: Klucel (hydroxypropylcellulose) (HPC)) was 0 of 6. For the same molecule, the survivor count [8] was 0 of 6, the survivor count [9] was 0 of 6 and the survivor count [7] was 0 of 6.
In the case of `CC(O)C/C=N\N=C(N)N` (stereo unspecified), the survivor count (dose: 30.0 mg/kg/injection, schedule: Q01DX Z (ip), vehicle: methylcellulose (MC)) is reported as 0 of 6, the survivor count (dose: 60.0 mg/kg/injection, schedule: Q01DX Z (ip), vehicle: methylcellulose (MC)) is reported as 0 of 6 and the survivor count (dose: 120.0 mg/kg/injection, schedule: Q01DX Z (ip), vehicle: methylcellulose (MC)) is reported as 0 of 6.
`Nc1ncnc2cc[nH]c12` was tested, and the survivor count [11] was 0 of 4 and 3 of 6.
In the case of `COc1ccc(OC)c(/C=C/c2cc3ccccc3c[n+]2C)c1`, the survivor count (dose: 50.0 mg/kg/injection, schedule: Q01DX009 (ip), vehicle: saline with Tween-80) is reported as 0 of 3, the survivor count [12] is reported as 0 of 3 and the survivor count [3] is reported as 0 of 3.
For `NNc1n[nH]c(=O)n1N`, the survivor count [7] was 0 of 6.
For `CC(C)(SCc1ccccc1)C(NC(=O)OCc1ccccc1)C(=O)O` (stereo unspecified), the survivor count (dose: 400.0 mg/kg/injection, schedule: Q04DX002 (ip), vehicle: DMSO) was 0 of 3.
With `O=C(O)c1cc2ccccc2c(Br)c1O.OC1CCCC2CCC[N-]C12.[Cu+]` the T/C (dose: 8.0 mg/kg/injection, schedule: Q01DX015 (sc), vehicle: steroid suspending solution) was 147 % of control, the survivor count (dose: 200.0 mg/kg/injection, schedule: Q01DX001 (sc), vehicle: steroid suspending solution) was 2 of 6 and the survivor count (dose: 400.0 mg/kg/injection, schedule: Q01DX001 (sc), vehicle: steroid suspending solution) was 0 of 6.
`CCCCN(CCCC)C(=O)c1[nH]cnc1/N=N\N(C)C` was tested, and the survivor count [3] was 0 of 6 and the survivor count [4] was 0 of 6.
With `Oc1c(CNCCCN2CCCC2)cc(Cl)c2cccnc12` the survivor count [10] was 0 of 3.
`O=C(Cc1ccccc1)CC(O)(C(F)(F)F)C(F)(F)F` was tested, and the survivor count (dose: 400.0 mg/kg/injection, schedule: Q01DX009 (ip), vehicle: saline with Tween-80) was 5 of 6.
`COC(=O)C(NC(=O)C(C)NC(=O)c1cnc2ccccc2n1)C(C)C` (stereo unspecified) was tested, and the survivor count [1] was 1 of 6.
`CC(=O)c1ccc(N=C(N)N=C(N)N)cc1` was tested, and the survivor count [11] was 1 of 6.
With `CCNC1(c2ccc(Cl)cc2)CCCCC1=O` (stereo unspecified) the survivor count [13] was 1 of 6 and the survivor count [6] was 1 of 6.
With `COc1cccc(NC(=O)NC(C)(C)C)c1` the T/C [12] was 94 (2×), 98, 101 % of control, the T/C [3] was 94, 105, 115 % of control and the survivor count [3] was 3 of 3.
`C/C(=N/OC(=O)N(C)C)c1ccc(Cl)cc1Cl` was tested, and the survivor count (dose: 200.0 mg/kg/injection, schedule: Q01DX001 (ip), vehicle: other) was 1 of 4 and the survivor count (dose: 400.0 mg/kg/injection, schedule: Q01DX001 (ip), vehicle: other) was 0 of 4.
With `NC1=Nc2ccccc2CS1` the survivor count (dose: 75.0 mg/kg/injection, schedule: Q04DX003 (ip), vehicle: saline) was 0 of 6.
`CC(O)C(C)Cl` (stereo unspecified) was tested, and the survivor count [13] was 3 of 3.
